Counter-ions that a name gives are not always drawn. Some of the results follow. Repeats are few or missing, and single values can be far off.
Tested on: Saos-2
Test: cell viability (CCK-8) relative to DMSO control (% of control); higher = less cytotoxic
Conditions: 10 µM; 48 h

| SMILES | cell viability |
| --- | --- |
| Cc1ccccc1N1C(=O)c2cc(S(N)(=O)=O)c(Cl)cc2NC1C (stereo not drawn) [Metolazone] | 94.4 |
| CC1COc2c(N3CCN(C)CC3)c(F)cc3c(=O)c(C(=O)O)cn1c23 (stereo not drawn) [Ofloxacin] | 68.5 |
| CC(C)N1CCN(c2ccc(OCC3COC(Cn4cncn4)(c4ccc(Cl)cc4Cl)O3)cc2)CC1 (stereo not drawn) [Terconazole] | 103 |
| CO[C@H]1/C=C/O[C@@]2(C)Oc3c(C)c(O)c4c(O)c(c5c(nc6cc(C)ccn65)c4c3C2=O)NC(=O)/C(C)=C\C=C\[C@H](C)[C@H](O)[C@@H](C)[C@@H](O)[C@@H](C)[C@H](OC(C)=O)[C@@H]1C [Rifaximin] | 109 |
| OC(CCN1CCCCC1)(c1ccccc1)C1CCCCC1 (stereo not drawn) [Trihexyphenidyl·HCl] | 80.1 |
| CN(C)[C@@H]1C(O)=C(C(N)=O)C(=O)[C@@]2(O)C(O)=C3C(=O)c4c(O)cccc4[C@@](C)(O)[C@H]3[C@H](O)[C@@H]12 [Oxytetracycline·HCl] | 114 |
| O=C(N[C@H](CO)[C@H](O)c1ccc([N+](=O)[O-])cc1)C(Cl)Cl [Chloramphenicol] | 72.1 |
| COc1c2occc2cc2ccc(=O)oc12 [Methoxsalen (Xanthotoxin)] | 93.5 |
| Nc1nc(O)c2ncn(CCC(CO)CO)c2n1 [Penciclovir] | 67.3 |
| C#Cc1cccc(Nc2ncnc3cc(OCCOC)c(OCCOC)cc23)c1 [Erlotinib HCl] | 54.6 |
| CC(=O)N1CCN(c2ccc(OCC3COC(Cn4ccnc4)(c4ccc(Cl)cc4Cl)O3)cc2)CC1 (stereo not drawn) [Ketoconazole] | 71.3 |
| Cc1cnc(NC(=O)C2=C(O)c3ccccc3S(=O)(=O)N2C)s1 [Meloxicam] | 54.6 |
| OC(CCN1CCCCC1)(c1ccccc1)C1CC2C=CC1C2 (stereo not drawn) [Biperiden·HCl] | 116 |
| CCN[C@H]1C[C@H](C)S(=O)(=O)c2sc(S(N)(=O)=O)cc21 [Dorzolamide·HCl] | 58.5 |
| CCCNC(=O)NS(=O)(=O)c1ccc(Cl)cc1 [Chlorpropamide] | 96.1 |
| C[C@H](CCC(=O)O)[C@H]1CC[C@H]2[C@@H]3[C@@H](O)C[C@@H]4C[C@H](O)CC[C@]4(C)[C@H]3CC[C@]12C [Ursodiol] | 139 |
| NCCc1ccc(O)c(O)c1 [Dopamine·HCl] | 101 |

3 records picked at random from the list so far:

| SMILES | cell viability |
| --- | --- |
| OC(CCN1CCCCC1)(c1ccccc1)C1CC2C=CC1C2 (stereo not drawn) [Biperiden·HCl] | 116 |
| CCCNC(=O)NS(=O)(=O)c1ccc(Cl)cc1 [Chlorpropamide] | 96.1 |
| COc1c2occc2cc2ccc(=O)oc12 [Methoxsalen (Xanthotoxin)] | 93.5 |

Continuation:

| SMILES | cell viability |
| --- | --- |
| O=C1CC2(CCCC2)CC(=O)N1CCCCN1CCN(c2ncccn2)CC1 [Buspirone·HCl] | 65.6 |
| Nc1cccc2c1CN(C1CCC(=O)NC1=O)C2=O (stereo not drawn) [Lenalidomide] | 108 |
| CN(C)CCCN1c2ccccc2Sc2ccc(Cl)cc21 [Chlorpromazine . Hydrochloride] | 29.4 |
| CCN(CC)CCNC(=O)c1cc(Cl)c(N)cc1OC [Metoclopramide·HCl] | 64.4 |
| CO[C@@]12[C@H](COC(N)=O)C3=C(C(=O)C(C)=C(N)C3=O)N1C[C@@H]1N[C@@H]12 [Mitomycin C] | 71.4 |
| COc1ccccc1OCCNCC(O)COc1cccc2[nH]c3ccccc3c12 (stereo not drawn) [Carvedilol] | 55.3 |
| CC[C@@]1(O)C(=O)OCc2c1cc1n(c2=O)Cc2cc3c(CN(C)C)c(O)ccc3nc2-1 [Topotecan . hydrochloride] | 31.7 |
| C[n+]1ccccc1/C=N/O [Pralidoxime Chloride] | 101 |
| COC(=O)[C@H]1[C@H]2C[C@@H]3c4[nH]c5cc(OC)ccc5c4CCN3C[C@H]2C[C@@H](OC(=O)c2cc(OC)c(OC)c(OC)c2)[C@@H]1OC [Reserpine] | 113 |
| CN(Cc1cnc2nc(N)nc(N)c2n1)c1ccc(C(=O)N[C@@H](CCC(=O)O)C(=O)O)cc1 [Methotrexate] | 66.9 |
| CC#C[C@]1(O)CC[C@H]2[C@@H]3CCC4=CC(=O)CCC4=C3[C@@H](c3ccc(N(C)C)cc3)C[C@@]21C [Mifepristone] | 64.8 |
| CC(C)n1c(/C=C/C(O)CC(O)CC(=O)O)c(-c2ccc(F)cc2)c2ccccc21 (stereo not drawn) [Fluvastatin . sodium salt] | 36.8 |
| C[N+](C)(C)CCOC(N)=O [Carbamoylcholine chloride] | 63.4 |
| C[N+](C)(C)CC(=O)O [Betaine] | 118 |
| CCn1cc(C(=O)O)c(=O)c2cc(F)c(N3CCNCC3)cc21 [Norfloxacin] | 72.4 |
| CC(C)OC(=O)CCC/C=C\C[C@@H]1[C@@H](/C=C/[C@@H](O)COc2cccc(C(F)(F)F)c2)[C@H](O)C[C@@H]1O [Travoprost] | 104 |

Source: the supplement of paper PMC9433722
